# Experimental data from article PMC10341463.
# Amino acid sequences for entries named in this document (tags omitted).
# UniProt Q09472: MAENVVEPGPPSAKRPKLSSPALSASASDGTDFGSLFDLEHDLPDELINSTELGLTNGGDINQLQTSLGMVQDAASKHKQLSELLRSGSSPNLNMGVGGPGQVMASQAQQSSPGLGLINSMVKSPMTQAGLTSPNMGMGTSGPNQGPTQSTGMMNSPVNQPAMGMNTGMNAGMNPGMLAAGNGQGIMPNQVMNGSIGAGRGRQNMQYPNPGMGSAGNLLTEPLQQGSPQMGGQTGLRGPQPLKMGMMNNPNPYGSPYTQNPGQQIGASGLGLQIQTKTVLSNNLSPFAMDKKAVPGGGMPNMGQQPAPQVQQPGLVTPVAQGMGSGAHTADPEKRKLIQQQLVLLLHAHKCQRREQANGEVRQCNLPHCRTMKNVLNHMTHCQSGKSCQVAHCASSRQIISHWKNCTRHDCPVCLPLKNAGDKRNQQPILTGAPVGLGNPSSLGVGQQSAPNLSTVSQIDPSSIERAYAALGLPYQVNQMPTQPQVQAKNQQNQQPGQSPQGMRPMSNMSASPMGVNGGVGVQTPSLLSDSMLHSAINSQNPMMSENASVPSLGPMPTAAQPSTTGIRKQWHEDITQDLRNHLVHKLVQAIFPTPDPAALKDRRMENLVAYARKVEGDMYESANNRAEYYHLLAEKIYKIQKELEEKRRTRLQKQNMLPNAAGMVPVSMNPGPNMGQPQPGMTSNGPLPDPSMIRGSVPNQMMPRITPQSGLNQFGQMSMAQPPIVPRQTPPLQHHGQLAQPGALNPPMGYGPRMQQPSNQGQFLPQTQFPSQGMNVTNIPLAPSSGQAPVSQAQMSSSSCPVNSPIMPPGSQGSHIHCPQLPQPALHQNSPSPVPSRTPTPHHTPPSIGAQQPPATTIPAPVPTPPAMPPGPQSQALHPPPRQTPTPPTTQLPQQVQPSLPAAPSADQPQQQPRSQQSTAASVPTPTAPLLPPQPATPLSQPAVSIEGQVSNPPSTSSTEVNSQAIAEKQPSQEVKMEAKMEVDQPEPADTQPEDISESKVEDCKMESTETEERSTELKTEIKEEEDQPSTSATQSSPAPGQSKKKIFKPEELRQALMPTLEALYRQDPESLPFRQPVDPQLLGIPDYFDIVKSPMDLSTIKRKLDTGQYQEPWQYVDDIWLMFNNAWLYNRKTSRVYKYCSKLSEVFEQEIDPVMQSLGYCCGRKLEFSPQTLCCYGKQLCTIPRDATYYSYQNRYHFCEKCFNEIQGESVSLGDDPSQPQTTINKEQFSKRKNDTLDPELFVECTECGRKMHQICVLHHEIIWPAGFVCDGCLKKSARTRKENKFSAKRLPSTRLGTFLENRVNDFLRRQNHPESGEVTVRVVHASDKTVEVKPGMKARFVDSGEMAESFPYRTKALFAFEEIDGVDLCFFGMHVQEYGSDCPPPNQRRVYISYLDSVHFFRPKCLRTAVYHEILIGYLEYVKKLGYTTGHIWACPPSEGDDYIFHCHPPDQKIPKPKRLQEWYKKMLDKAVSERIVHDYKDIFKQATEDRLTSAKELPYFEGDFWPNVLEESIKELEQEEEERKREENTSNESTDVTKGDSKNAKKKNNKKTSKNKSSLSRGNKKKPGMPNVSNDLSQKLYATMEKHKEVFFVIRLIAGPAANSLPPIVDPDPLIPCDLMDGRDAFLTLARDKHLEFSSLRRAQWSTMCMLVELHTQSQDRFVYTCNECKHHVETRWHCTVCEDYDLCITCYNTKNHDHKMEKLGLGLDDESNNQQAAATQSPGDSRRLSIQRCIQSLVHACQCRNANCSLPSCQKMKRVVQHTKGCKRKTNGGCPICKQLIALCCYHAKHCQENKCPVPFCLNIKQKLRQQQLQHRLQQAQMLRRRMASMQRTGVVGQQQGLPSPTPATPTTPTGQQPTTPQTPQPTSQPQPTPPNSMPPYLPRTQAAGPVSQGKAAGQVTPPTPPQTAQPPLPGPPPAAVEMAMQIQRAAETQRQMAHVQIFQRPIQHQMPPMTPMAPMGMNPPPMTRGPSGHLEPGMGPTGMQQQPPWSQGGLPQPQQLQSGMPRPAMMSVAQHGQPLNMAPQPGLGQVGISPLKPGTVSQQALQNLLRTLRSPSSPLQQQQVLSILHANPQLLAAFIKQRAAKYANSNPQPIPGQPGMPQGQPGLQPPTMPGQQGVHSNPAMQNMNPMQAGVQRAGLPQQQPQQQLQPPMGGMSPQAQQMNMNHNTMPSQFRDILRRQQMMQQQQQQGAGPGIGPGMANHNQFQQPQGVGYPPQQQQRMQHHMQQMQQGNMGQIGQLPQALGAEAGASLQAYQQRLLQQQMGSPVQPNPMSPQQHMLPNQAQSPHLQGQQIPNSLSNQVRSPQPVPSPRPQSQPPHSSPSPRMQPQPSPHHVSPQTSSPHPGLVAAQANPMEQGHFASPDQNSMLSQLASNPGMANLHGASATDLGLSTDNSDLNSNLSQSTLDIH
# UniProt P40763: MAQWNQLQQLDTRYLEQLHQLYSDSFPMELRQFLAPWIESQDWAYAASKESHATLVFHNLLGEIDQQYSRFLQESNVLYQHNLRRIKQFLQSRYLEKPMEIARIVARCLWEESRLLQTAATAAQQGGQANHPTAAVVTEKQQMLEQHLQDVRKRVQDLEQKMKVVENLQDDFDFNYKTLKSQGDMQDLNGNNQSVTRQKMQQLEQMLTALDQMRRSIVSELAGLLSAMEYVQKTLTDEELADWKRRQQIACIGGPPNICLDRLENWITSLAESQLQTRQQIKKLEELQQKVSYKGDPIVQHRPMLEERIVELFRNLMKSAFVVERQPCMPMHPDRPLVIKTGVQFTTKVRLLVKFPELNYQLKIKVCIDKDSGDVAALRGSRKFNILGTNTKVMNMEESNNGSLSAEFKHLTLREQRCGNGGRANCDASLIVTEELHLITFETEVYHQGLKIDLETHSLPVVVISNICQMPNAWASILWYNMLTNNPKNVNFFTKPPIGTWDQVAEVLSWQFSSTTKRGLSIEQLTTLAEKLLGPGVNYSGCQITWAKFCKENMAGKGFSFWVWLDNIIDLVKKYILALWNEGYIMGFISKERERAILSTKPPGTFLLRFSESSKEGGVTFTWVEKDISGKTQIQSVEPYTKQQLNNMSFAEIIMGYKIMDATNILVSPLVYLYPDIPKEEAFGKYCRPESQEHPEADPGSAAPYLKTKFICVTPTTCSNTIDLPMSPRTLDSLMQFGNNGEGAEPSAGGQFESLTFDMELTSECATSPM
# These are yes or no findings as the source states them, for the method shown. Binding seen in cells or lysates may run through a third protein. Some entries that bind do so weakly or less than the wild type.
# Biological target: p300 (human (endogenous in amnion fibroblasts)) (UniProt Q09472)
# Experiment: co-IP; 10 ug nuclear protein of human amnion fibroblasts treated with or without cortisol (1 uM; 12 h); precipitated with rabbit antibody against p300 overnight at 4 C, protein A agarose beads; STAT3, GR and CREB detected by Western blotting; pre-immune IgG as negative control
substance,measurement,value
signal transducer and activator of transcription 3 (from UniProt P40763 1-770),binding,binds
